Test results reported in PMC6859486.
No constants are given. Whether binding was seen depends on the method and setting. Binding seen in cells or lysates may run through a third protein. Here binding means that the protein was enriched with, or labelled near, the bait; the list need not be complete. For part of these data: Sequences can lack the tags named with a protein.

Chains of the proteins cited; added tags and fusions are not shown. Residues count along the entry.
UniProt Q8R035, residues 30-206: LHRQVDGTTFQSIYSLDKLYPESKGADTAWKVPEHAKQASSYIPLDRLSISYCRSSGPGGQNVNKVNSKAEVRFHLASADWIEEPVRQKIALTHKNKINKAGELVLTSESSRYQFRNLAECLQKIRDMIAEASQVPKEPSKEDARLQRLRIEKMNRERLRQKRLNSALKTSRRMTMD
UniProt Q91YJ5, residues 30-727: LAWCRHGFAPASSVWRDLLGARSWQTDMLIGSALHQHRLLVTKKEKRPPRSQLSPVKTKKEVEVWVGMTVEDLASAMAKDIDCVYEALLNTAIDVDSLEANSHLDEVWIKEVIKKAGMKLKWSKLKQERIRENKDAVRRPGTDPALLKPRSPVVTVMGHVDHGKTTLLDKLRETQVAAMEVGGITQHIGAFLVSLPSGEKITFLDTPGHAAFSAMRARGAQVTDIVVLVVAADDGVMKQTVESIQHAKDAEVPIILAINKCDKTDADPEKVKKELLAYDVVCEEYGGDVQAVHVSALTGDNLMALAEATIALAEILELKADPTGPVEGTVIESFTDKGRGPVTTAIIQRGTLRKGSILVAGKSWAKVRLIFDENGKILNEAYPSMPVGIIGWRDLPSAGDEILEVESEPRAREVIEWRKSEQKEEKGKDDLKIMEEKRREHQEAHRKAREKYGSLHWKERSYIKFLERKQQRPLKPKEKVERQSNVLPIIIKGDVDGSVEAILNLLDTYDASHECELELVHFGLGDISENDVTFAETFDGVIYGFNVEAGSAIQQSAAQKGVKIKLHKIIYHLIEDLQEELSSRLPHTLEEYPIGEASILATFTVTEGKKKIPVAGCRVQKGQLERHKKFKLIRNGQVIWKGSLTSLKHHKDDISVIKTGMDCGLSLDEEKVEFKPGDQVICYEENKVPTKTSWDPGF
UniProt Q9CWV0: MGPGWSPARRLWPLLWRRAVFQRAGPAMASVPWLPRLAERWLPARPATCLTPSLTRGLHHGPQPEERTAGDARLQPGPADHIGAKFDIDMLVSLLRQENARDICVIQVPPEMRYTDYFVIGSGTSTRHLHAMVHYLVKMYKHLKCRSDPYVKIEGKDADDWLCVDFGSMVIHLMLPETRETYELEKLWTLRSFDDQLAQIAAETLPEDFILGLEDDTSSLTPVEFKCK
UniProt A4D1E9: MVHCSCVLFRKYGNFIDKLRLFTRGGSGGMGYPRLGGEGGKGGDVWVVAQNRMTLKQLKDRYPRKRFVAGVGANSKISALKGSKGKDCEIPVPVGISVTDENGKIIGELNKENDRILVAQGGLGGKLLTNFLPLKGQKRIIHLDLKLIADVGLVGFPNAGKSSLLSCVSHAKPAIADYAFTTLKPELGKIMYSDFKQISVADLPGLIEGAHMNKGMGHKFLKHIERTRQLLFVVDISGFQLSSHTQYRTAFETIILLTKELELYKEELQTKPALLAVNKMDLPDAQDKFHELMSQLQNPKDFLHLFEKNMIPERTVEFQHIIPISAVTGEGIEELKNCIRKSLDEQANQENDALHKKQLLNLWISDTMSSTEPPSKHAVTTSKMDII

T1: PUSL1-FLAG (UniProt Q8N0Z8)
T1 sequence: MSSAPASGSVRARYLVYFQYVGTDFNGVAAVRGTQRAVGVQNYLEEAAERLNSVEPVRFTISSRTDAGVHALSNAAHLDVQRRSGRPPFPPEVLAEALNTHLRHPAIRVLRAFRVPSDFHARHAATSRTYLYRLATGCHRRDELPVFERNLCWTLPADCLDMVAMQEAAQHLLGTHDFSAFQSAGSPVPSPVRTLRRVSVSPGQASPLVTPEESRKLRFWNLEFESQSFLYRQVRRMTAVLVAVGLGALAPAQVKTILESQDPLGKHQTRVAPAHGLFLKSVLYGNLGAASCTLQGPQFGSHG

B1: RNA pseudouridylate synthase domain-containing protein 4 (protein, UniProt Q9CWX4 47-377)
chain: AEKLRAQKQEQKAKEVRVPTNPVQRRVQELVRFTQQLQRVHPNVLAKELSRRILHQDNDLVVINKPYGLPVHGGPGVQLCISDVLPILAKMLHGHKAEPLHLCHRLDKETTGVMVLAWEKDMAHQVQELFRTRQVEKKYWAITVRVPLPSAGVVDIPIKEKEVQGPQQHHKMTLSPSYRLDNGKMVKVRASRDAHVAVTQYQVLSSASSSALVELQPVTGIKHQLRVHLSFGLDCPILGDHKYSDWTRLAPQKLSAGTLKKLGLQQSKARYIPLHLHARQLILPALGSRTEELLLTCKLPHFFARSLLRLGLDMPNQDQSRGNKARHVEAR
B2: mitochondrial rRNA methyltransferase MRM3 (protein, UniProt Q5ND52 41-418)
chain: LSPSGQVEERKRAPDQQPRKAVPKASSQGQRQKQPLETSPSQTPHTWEEAGLRYDKAFPGDRRLSSVMTIVKSRPFREKQGKILLEGRRLIADALKAGAVPKAFFFSRLEYVKELPVDKLKDVSLIKVKFEDIKDWSDLVTPQGIMGIFAKPDPVKMTYPETPLHHTLPLVLICDNLRDPGNLGTILRSAAGAGCSKVLLTKGCVDAWEPKVLRAGMGAHFQVPIVNNVEWETVPNHLPPDTRVYVADNCGHYAQVQMSDKTGDRDWACDRRFLKFHKYEEDLDTKTRKDWLPKLEVQSYDLDWTGAPAAVVIGGETHGVSLESLQLAESTGGKRLLIPVVPGVDSLNSAMAASILLFEGKRQLRIKVEDLSRDRSYH
B3: DEAD-box RNA helicase 28 (protein, UniProt Q9CWT6 1-540)
chain: MALAGPSRLLALAVRLLLEPRRNLVVRGSDQSLPVVRVPRALQRRQEQRQSGRGSLQRPVLVRPGPLLVSARRPELNQPARLTLGRWERAPLASRGWKHRRSRQDHFSIERVQQEAPALRNLSSRGSFVDLGLEPRVLLALQEAVPEVVQPTSVQSKTIPPLLRGRHLLCAAETGSGKTLSYLLPLFQRLLRGSDLDSRSFTAPRGLVLVPSRELAEQVQAVAQSLGGYLGLQVIELGGGLGMSRLKLQLYRRPAADVLVATPGALWKALKSQLISLQHLNFIVLDEVDTLLDESFLELVDYILEKSPIAESPAELEDPFNPKAQLVLVGATFPEGLNQLLSKVTSPDSLTTITSSKLHCLMPHVRQTFMRLKGADKVTELVQILKQQDKASKTEPSGTVLVFCNSASTVNWLGYILDDHKIQHLRLQGQMPASMRAGIFQSFQKGSQNILVCTDIASRGLDSVHVEVVINYDFPPTLQDYIHRAGRVGRVGSEVPGSVISFVTHPWDVSLVQKIELAARRRRSLPGLASSVGDPLPQKA
B4: GTP-binding protein 10 (mouse, endogenous) (protein, UniProt Q8K013 1-366)
chain: MVRCGCALLRKYGNFIDNLRIFTKGGSGGMGYPRLGGEGGRGGDVWVVAHKNMTLKQLKNKYPQKRFVAGGGANSRVSALQGSKGKDCEVPAPVGISVTDENGQVLGELNKEEDRVLVAKGGLGGKLHTNFLPLKGQKRIVHLDLKVIADVGLVGFPNAGKSSLLSRVSHATPVIADYAFTTLRPELGKIMYNDFKQISVADLPGLIEGAHMNKGMGHKFLKHLERTRQLLFVVDISGFQLSSVTPYRTAFETIILLTKELELYKEELQTKPALLAINKMDLPDAQVKLQELMKQLLSPEDFLHLFETKMIPEKALEFQHIVPISTVTGEGIAELKSCIRKALDEQDGKESDAHRSKQLLNLQSSS
B5: MTERF4 (human, endogenous) (protein, UniProt Q7Z6M4 43-381)
chain: LTTASNGGVIEELSCVRSNNYVQEPECRRNLVQCLLEKQGTPVVQGSLELERVMSSLLDMGFSNAHINELLSVRRGASLQQLLDIISEFILLGLNPEPVCVVLKKSPQLLKLPIMQMRKRSSYLQKLGLGEGKLKRVLYCCPEIFTMRQQDINDTVRLLKEKCLFTVQQVTKILHSCPSVLREDLGQLEYKFQYAYFRMGIKHPDIVKSEYLQYSLTKIKQRHIYLERLGRYQTPDKKGQTQIPNPLLKDILRVSEAEFLARTACTSVEEFQVFKKLLAREEEESESSTSDDKRASLDEDEDDDDEEDNDEDDNDEDDDDEDDDEAEDNDEDEDDDEEE
B6: NOA1 (human, endogenous) (protein, UniProt Q8NC60 1-698)
chain: MLPARLPFRLLSLFLRGSAPTAARHGLREPLLERRCAAASSFQHSSSLGRELPYDPVDTEGFGEGGDMQERFLFPEYILDPEPQPTREKQLQELQQQQEEEERQRQQRREERRQQNLRARSREHPVVGHPDPALPPSGVNCSGCGAELHCQDAGVPGYLPREKFLRTAEADGGLARTVCQRCWLLSHHRRALRLQVSREQYLELVSAALRRPGPSLVLYMVDLLDLPDALLPDLPALVGPKQLIVLGNKVDLLPQDAPGYRQRLRERLWEDCARAGLLLAPGHQGPQRPVKDEPQDGENPNPPNWSRTVVRDVRLISAKTGYGVEELISALQRSWRYRGDVYLVGATNAGKSTLFNTLLESDYCTAKGSEAIDRATISPWPGTTLNLLKFPICNPTPYRMFKRHQRLKKDSTQAEEDLSEQEQNQLNVLKKHGYVVGRVGRTFLYSEEQKDNIPFEFDADSLAFDMENDPVMGTHKSTKQVELTAQDVKDAHWFYDTPGITKENCILNLLTEKEVNIVLPTQSIVPRTFVLKPGMVLFLGAIGRIDFLQGNQSAWFTVVASNILPVHITSLDRADALYQKHAGHTLLQIPMGGKERMAGFPPLVAEDIMLKEGLGASEAVADIKFSSAGWVSVTPNFKDRLHLRGYTPEGTVLTVRPPLLPYIVNIKGQRIKKSVAYKTKKPPSLMYNVRKKKGKINV

What was measured:
mL62-FLAG (mouse) [1] = molecular target: mL62-FLAG (mouse) (UniProt Q8R035); test: affinity purification with mass spectrometry; mL62-FLAG co-immunoprecipitated on anti-FLAG M2 beads from 1% digitonin lysates of heart, liver and kidney mitochondria of MitoRibo-Tag mice, WT mice as control; 10 mM Tris-HCl pH 7.5, 100 mM KCl, 20 mM MgCl2; on-bead trypsin elution; LFQ-MS/MS
mL62-FLAG (mouse) [2] = molecular target: mL62-FLAG (mouse) (UniProt Q8R035); test: affinity purification with mass spectrometry; mL62-FLAG co-immunoprecipitated from digitonin lysates of heart mitochondria of 18- to 20-week-old Mterf4 knockout MitoRibo-Tag mice (L/L, +/Cre, T/T) versus control MitoRibo-Tag mice (L/L, +/+, T/T); LFQ-MS/MS
PUSL1-FLAG = molecular target: T1, PUSL1-FLAG; test: affinity purification with mass spectrometry; PUSL1-FLAG co-immunoprecipitated from mitochondria of HEK293T cells lysed with 3% digitonin, Mito-GFP cells as control; LFQ-MS/MS

Row | binding (mL62-FLAG (mouse) [1]) | binding (mL62-FLAG (mouse) [2]) | binding (PUSL1-FLAG) | Molecule
1 | binds | binds | – | mitochondrial translation initiation factor IF2mt (from UniProt Q91YJ5 30-727)
2 | binds | binds | – | mitochondrial assembly of ribosomal large subunit 1 (from UniProt Q9CWV0 1-228)
3 | – | – | binds | GTPBP10 (human, endogenous) (from UniProt A4D1E9 1-387)
4 | binds | binds | – | B1
5 | binds | binds | – | B2
6 | binds | binds | – | B3
7 | binds | binds | – | B4
8 | – | – | binds | B5
9 | – | – | binds | B6
